Assay results: PubChem BioAssay AID540275 (National Center for Advancing Translational Sciences (NCATS), 2011)
Among all 320,000 compounds or so, about 620 (0.19%) were called active. The inconclusive results got no clear call from the source; some entries with a clear call stand among them for comparison. Rule as the data show it: active = activation above about 80%; inconclusive = between about 30% and that limit; inactive = weaker than that.

Sequences of proteins named here, by UniProt entry; tags and fusion partners are left off.
UniProt Q8NER1, whole entry, looked up: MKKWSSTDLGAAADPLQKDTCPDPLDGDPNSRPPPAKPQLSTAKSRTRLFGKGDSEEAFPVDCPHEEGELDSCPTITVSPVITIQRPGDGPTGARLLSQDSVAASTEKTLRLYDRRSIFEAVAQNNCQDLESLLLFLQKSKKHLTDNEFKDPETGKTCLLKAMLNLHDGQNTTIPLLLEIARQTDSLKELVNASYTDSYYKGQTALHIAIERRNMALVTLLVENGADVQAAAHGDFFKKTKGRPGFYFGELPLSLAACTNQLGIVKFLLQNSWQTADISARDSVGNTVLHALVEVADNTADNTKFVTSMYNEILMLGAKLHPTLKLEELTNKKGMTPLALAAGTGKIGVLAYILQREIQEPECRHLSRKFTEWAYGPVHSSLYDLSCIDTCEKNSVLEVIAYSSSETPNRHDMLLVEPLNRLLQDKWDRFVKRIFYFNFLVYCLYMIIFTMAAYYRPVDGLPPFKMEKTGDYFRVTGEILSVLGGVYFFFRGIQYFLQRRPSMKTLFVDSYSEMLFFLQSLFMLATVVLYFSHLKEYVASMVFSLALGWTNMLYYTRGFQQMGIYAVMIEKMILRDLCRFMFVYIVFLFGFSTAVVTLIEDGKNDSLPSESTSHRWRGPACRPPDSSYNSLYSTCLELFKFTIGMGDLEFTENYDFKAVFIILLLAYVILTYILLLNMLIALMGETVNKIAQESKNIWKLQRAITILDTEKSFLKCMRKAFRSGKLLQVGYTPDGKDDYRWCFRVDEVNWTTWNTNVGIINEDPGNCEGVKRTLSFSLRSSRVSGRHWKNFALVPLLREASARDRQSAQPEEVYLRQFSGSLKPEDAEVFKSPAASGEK

Molecular target: Transient receptor potential cation channel subfamily V member 1 (Homo sapiens) (UniProt Q8NER1)
Assay: HTS Assay for Compounds that Act as Agonists of the Vanilloid Receptor 1; also: 0% is about no effect
Conditions: TRPV1-expressing cells, Fluo-8 calcium influx, agonist mode; at 8.33 µM, hits give high values
In short: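 TRPV1-expressing cells were cultured overnight at 35.5C and loaded with Fluo-8 calcium dye for 40 to 90 min at room temperature. After a 10 s baseline, compound was added and calcium influx was read kinetically for 3 min (ex 480/em 520 nm).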

Structure (SMILES)	activation
COc1cccc(CNC(=O)C2CCN(S(=O)(=O)c3cccs3)CC2)c1	inconclusive: 35.8%
CSc1nn2c(C(F)(F)F)cc(C(F)(F)F)nc2c1C(=O)O	inactive: -1.13%
CCOC(=O)C1=C(C)NC(=S)N(C=O)C1c1ccccc1 (stereo not given)	inactive: -3.35%
CC(C)Cc1ccc(/C=C/C(=O)N2CCOCC2)cc1	inconclusive: 69.5%
CN1CCN(c2ccc(NC(=O)c3cccc(OCc4ccccc4)c3)cc2)CC1	inconclusive: 39%
Clc1ccc(C2=Nn3c(nnc3-c3n[nH]c4c3CCC4)SC2)cc1Cl	inconclusive: 33.8%
Cc1nn(Cc2ccccc2)c(Cl)c1C(=O)NCCc1ccccc1	inconclusive: 52.4%
O=C1C2ON(c3ccccc3)C(c3cccnc3)C2C(=O)N1Cc1ccccc1 (stereo not given)	inconclusive: 37.9%
O=C(Nc1ccc2c(c1)CCC2)Nc1ccccc1Cl	inconclusive: 49.8%
CC(C)Oc1ccc(S(=O)(=O)N2CCOCC2)cc1NC(=O)C1CCCCC1	inconclusive: 55.5%
Cc1noc(NC(=O)c2ccc(Cl)c(Cl)c2)c1Cl	inconclusive: 33.4%
CCc1cc(=O)oc2c3c(cc(OCC(=O)NCc4ccco4)c12)OC(C)(C)CC3	inconclusive: 31.7%
COc1cccc(C2CC(=O)Nc3cc4c(cc32)OCCO4)c1OC(C)C (stereo not given)	inconclusive: 32.2%
Cc1nc(C)c(C(=O)Nc2ccc(Oc3ccccc3)cc2)o1	inconclusive: 43.4%
CCN(CC)S(=O)(=O)c1ccc(S(=O)(=O)N2CCN(CCC#N)CC2)cc1	inactive: -3.18%
COc1cc(CNCCN2CCOCC2)ccc1OCc1ccc(Cl)cc1	inactive: 9.13%
CN1CCN(c2ccc(NC(=O)c3ccc(-c4ccccc4F)o3)cc2)CC1	inactive: 11.4%
O=C(COC(=O)c1cc(=O)[nH]c2ccccc12)c1ccc(Br)cc1	inactive: -3.49%
Cc1nnsc1C(=O)NNS(=O)(=O)c1cc(C(F)(F)F)cc(C(F)(F)F)c1	inactive: -0.0473%
COc1ccccc1Oc1ccc(Oc2ccccc2OC)cc1	inactive: 0.515%
COc1ccc(NS(=O)(=O)c2cc(NC(=O)c3ccco3)ccc2N2CCCCC2)cc1	inconclusive: 60.3%
Cc1ccc(NC2=CC(=O)CC(c3ccco3)C2)c(N)c1 (stereo not given)	inconclusive: 45.1%
CCC(C)NC(=O)CN(c1ccc(OC)cc1)S(=O)(=O)c1ccccc1 (stereo not given)	inconclusive: 52.4%

10 of these compounds, reformatted:

| Structure (SMILES) | activation |
| --- | --- |
| COc1cccc(CNC(=O)C2CCN(S(=O)(=O)c3cccs3)CC2)c1 | inconclusive: 35.8% |
| CSc1nn2c(C(F)(F)F)cc(C(F)(F)F)nc2c1C(=O)O | inactive: -1.13% |
| CCOC(=O)C1=C(C)NC(=S)N(C=O)C1c1ccccc1 (stereo not given) | inactive: -3.35% |
| CC(C)Cc1ccc(/C=C/C(=O)N2CCOCC2)cc1 | inconclusive: 69.5% |
| CN1CCN(c2ccc(NC(=O)c3cccc(OCc4ccccc4)c3)cc2)CC1 | inconclusive: 39% |
| Clc1ccc(C2=Nn3c(nnc3-c3n[nH]c4c3CCC4)SC2)cc1Cl | inconclusive: 33.8% |
| Cc1nn(Cc2ccccc2)c(Cl)c1C(=O)NCCc1ccccc1 | inconclusive: 52.4% |
| O=C1C2ON(c3ccccc3)C(c3cccnc3)C2C(=O)N1Cc1ccccc1 (stereo not given) | inconclusive: 37.9% |
| O=C(Nc1ccc2c(c1)CCC2)Nc1ccccc1Cl | inconclusive: 49.8% |
| CC(C)Oc1ccc(S(=O)(=O)N2CCOCC2)cc1NC(=O)C1CCCCC1 | inconclusive: 55.5% |

Later entries.

Structure (SMILES)	activation
CN(C(=O)C(C)(C)C)C1c2c(ccc3ccccc23)OCC1CO (stereo not given)	inactive: 26.3%
COc1ccccc1NC(=O)CN(c1ccccc1OC)S(=O)(=O)c1ccccc1	inconclusive: 34.7%
Nc1cccc2c1C(=O)N(CCOc1ccccc1F)C2=O	inactive: -0.202%
O=C(CCSCc1cccc(Cl)c1)NCCc1ccc(Cl)cc1	inconclusive: 42.9%
CCCOc1ccc(CNC(=S)N/N=C/c2ccc([N+](=O)[O-])cc2)cc1	inactive: 3.39%
Cc1cc2cc(C(c3nnnn3Cc3ccco3)N3CCc4ccccc4C3)c(=O)[nH]c2cc1C (stereo not given)	inactive: 0.834%
Cc1ccc(-n2ncc3c2CC(C)(C)CC3NC(=O)c2ccncc2)cc1 (stereo not given)	inconclusive: 57.5%
Cc1ccc(-c2cc(C(=O)Nc3ccncc3)c3ccccc3n2)cc1	inconclusive: 52.3%
Cc1ccc(-n2c(SCC(=O)N3CCOCC3)nc(O)c(Cc3ccccc3)c2=O)cc1	inactive: -4.75%
CCOC(=O)c1cc(-c2ccc(C)cc2)n(CCC(=O)NC(C)CC)c1C (stereo not given)	inconclusive: 50%
O=C(/C=C/Nc1cccc(O)c1)c1ccccc1	inactive: 2.15%
CCOC(=O)N1CCC(=NNC(=O)c2ccccc2F)CC1	inactive: 25.6%
CCc1ccc(-c2nc(NC(=O)c3ccc(OCC(=O)Nc4ccc(F)cc4)c(OC)c3)sc2C)cc1	inactive: -3.65%
Cc1ccc2nc(-c3ccccn3)c(Nc3ccccc3C)n2c1	inconclusive: 32.6%
CCOC(=O)C1(CCOc2ccccc2)CCN(Cc2ccc(O)c(OC)c2)CC1	inconclusive: 65.3%
CCOC(=O)C1CCCN(C(=O)c2cccc(S(=O)(=O)N(C)c3ccc(C)cc3)c2)C1 (stereo not given)	inconclusive: 44.5%
CCOc1cc(N2CCOCC2)c(OCC)cc1NC(=O)CN1CCc2ccccc2C1	inconclusive: 32.1%
CCOc1cccc(C(=O)Nc2ccc3c(c2)OCCO3)c1	inconclusive: 34.1%
O=C(NCc1ccc2c(c1)OCO2)c1nnc(Cc2ccc(F)cc2)o1	inconclusive: 45.2%
CCOC(=O)c1cnc2ccc(OCC)cc2c1NCc1ccccc1	inconclusive: 61.8%
CC1(c2ccc3c(c2)OCO3)NC(=O)N(CC(=O)NCCC2=CCCCC2)C1=O (stereo not given)	inconclusive: 35.5%
COc1ccc(-c2nc3ccccc3nc2-c2ccccc2)cc1OC	inactive: -3.97%
